From patent US20240392002A1 come the findings set out here.

Chains of the proteins cited; added tags and fusions are not shown. Lines headed by an entry give the natural chain unless they say otherwise; changes in a name come on top.
UniProt Q01973: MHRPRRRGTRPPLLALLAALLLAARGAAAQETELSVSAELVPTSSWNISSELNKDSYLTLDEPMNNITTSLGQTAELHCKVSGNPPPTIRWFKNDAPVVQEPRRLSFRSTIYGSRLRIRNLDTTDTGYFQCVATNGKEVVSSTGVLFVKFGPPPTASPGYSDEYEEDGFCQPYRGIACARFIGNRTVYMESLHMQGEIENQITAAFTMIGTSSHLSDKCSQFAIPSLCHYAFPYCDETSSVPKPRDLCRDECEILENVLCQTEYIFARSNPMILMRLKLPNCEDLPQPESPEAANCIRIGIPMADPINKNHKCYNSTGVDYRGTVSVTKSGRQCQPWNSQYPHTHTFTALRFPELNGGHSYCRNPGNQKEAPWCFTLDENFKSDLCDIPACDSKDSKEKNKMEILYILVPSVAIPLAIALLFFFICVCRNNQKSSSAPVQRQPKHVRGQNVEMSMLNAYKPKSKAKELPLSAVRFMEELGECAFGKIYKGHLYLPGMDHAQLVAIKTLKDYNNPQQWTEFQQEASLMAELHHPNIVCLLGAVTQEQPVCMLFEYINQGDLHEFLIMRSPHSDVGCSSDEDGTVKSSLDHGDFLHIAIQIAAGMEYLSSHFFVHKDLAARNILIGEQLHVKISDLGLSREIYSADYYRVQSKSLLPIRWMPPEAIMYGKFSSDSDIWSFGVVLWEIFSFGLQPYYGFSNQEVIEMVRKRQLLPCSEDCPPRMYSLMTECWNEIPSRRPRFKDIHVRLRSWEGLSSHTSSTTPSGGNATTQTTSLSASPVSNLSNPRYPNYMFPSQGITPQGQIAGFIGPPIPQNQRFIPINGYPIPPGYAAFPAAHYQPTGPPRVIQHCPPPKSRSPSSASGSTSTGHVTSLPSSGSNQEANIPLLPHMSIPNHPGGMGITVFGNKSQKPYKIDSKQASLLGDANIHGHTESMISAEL
UniProt Q01974: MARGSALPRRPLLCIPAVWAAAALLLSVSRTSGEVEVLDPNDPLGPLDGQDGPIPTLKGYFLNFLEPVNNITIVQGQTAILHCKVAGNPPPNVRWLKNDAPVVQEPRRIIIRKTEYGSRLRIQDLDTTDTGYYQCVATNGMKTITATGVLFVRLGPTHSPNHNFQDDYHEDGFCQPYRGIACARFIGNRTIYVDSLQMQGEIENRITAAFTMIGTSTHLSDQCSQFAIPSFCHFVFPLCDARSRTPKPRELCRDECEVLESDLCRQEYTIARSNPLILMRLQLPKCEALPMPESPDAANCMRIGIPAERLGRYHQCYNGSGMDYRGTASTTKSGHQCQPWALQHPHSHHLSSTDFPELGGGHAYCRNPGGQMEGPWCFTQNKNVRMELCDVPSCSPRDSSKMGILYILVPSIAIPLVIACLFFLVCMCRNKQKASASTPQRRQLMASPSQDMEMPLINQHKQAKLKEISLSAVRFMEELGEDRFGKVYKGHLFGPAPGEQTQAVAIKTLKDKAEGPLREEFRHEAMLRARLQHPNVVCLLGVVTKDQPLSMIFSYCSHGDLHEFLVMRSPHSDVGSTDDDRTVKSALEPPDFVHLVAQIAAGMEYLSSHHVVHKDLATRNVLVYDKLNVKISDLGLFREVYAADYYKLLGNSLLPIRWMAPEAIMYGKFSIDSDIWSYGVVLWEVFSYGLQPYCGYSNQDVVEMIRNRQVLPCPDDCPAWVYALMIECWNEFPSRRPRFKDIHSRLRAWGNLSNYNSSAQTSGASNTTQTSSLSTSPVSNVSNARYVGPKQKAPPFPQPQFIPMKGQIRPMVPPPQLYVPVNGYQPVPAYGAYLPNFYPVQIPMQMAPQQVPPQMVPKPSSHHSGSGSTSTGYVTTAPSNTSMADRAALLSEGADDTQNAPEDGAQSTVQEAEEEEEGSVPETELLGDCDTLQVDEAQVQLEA

Results are given in words; binding and its absence hold for the method and conditions named. Some binding calls cover weakened binding; strength is not graded here.

Assay [1] has as its target ROR1 Frizzled domain (human) (UniProt Q01973). As to the kind of experiment: BLI, phases labelled 'capture' and 'IgG binding', one ROR1 domain for each panel. (BLI is a label-free optical method that tracks binding on a fibre tip over time.)
For assay [2], the target named is ROR1 Kringle domain (human) (UniProt Q01973). The assay is described as above.
Assay [3] addresses ROR1 Frizzled domain (human) (UniProt Q01973). As to the kind of experiment: BLI, IgG1 on biosensor, soluble ROR1 domain.
In assay [4] the target is extracellular domain of human ROR1 (human) (UniProt Q01973). The experiment in a line: BLI, IgG1 on biosensor, soluble ROR ectodomain.
The target in assay [5] is ROR1 Ig-like domain (human) (UniProt Q01973). As to the kind of experiment: BLI, IgG1 on biosensor, soluble ROR1 domain.
The target in assay [6] is extracellular domain of human ROR2 (human) (UniProt Q01974). The experiment in a line: BLI, IgG1 on biosensor, soluble ROR ectodomain.

B1: I2A-10 D54E Y55Q IgG (antibody, V domains shown)
VH: EVQLVESGGGLVQPGGSLRLSCAASGFTFSSYFIHWVRQAPGKGLEWVAGIYPSEGYTSYADSVKGRFTISADTSKNTAYLQMNSLRAEDTAVYYCARYYVSGMDYWGQGTLVTVSS
VL: DIQMTQSPSSLSASVGDRVTITCRASQSVSSAVAWYQQKPGKAPKLLIYSASSLQSGVPSRFSGSRSGTDFTLTISSLQPEDFATYYCQQYYYYPGTFGQGTKVEIKR
Take B1: the binding entry in assay [1] and in assay [2] was “no binding (tested: not shown)” throughout.

B2: I2A-26 IgG1 (antibody, V domains shown)
VH: EVQLVESGGGLVQPGGSLRLSCAASGFTFQSYDIHWVRQAPGKGLEWVAAIDPTGRSTAYADSVKGRFTISADTSKNTAYLQMNSLRAEDTAVYYCARDYGVFDYWGQGTLVTVSS
VL: DIQMTQSPSSLSASVGDRVTITCRASQSVSSAVAWYQQKPGKAPKLLIYSASSLYSGVPSRFSGSRSGTDFTLTISSLQPEDFATYYCQQFYRSPATFGQGTKVEIK
For B2, the binding result in assay [3] and in assay [4] was “binds” each time.

B3: I2A-33 IgG1 (antibody, V domains shown)
VH: EVQLVESGGGLVQPGGSLRLSCAASGFTFDDYYIHWVRQAPGKGLEWVAWIDSYGGYTSYADSVKGRFTISADTSKNTAYLQMNSLRAEDTAVYYCARSSYYYPGGFDYWGQGTLVTVSS
VL: DIQMTQSPSSLSASVGDRVTITCRASQSVSSAVAWYQQKPGKAPKLLIYSASSLYSGVPSRFSGSRSGTDFTLTISSLQPEDFATYYCQQWDSTLYTFGQGTKVEIK
As for B3, the binding result in assay [5] and in assay [4] was “binds” each time.

B4: I2A-36 IgG1 (antibody, V domains shown)
VH: EVQLVESGGGLVQPGGSLRLSCAASGFTFSQYWIHWVRQAPGKGLEWVAAIYSSTKYTIYADSVKGRFTISADTSKNTAYLQMNSLRAEDTAVYYCARESMYFYSYGLDYWGQGTLVTVSS
VL: DIQMTQSPSSLSASVGDRVTITCRASQSVSSAVAWYQQKPGKAPKLLIYSASSLYSGVPSRFSGSRSGTDFTLTISSLQPEDFATYYCQQLPSTPLTFGQGTKVEIK
For B4, the binding result in assay [4] and in assay [6] was “binds” in each case.

B5: I2A-37 IgG1 (antibody, V domains shown)
VH: EVQLVESGGGLVQPGGSLRLSCAASGFTFSWYGIHWVRQAPGKGLEWVAYIDSYTSSTYYADSVKGRFTISADTSKNTAYLQMNSLRAEDTAVYYCARSHFGHYDYVMDYWGQGTLVTVSS
VL: DIQMTQSPSSLSASVGDRVTITCRASQSVSSAVAWYQQKPGKAPKLLIYSASSLYSGVPSRFSGSRSGTDFTLTISSLQPEDFATYYCQQAYDQLYTFGQGTKVEIK
B5: the binding entry in assay [5] and in assay [4] was “binds” each time.

B6: I2A-13 IgG1 (antibody, V domains shown)
VH: EVQLVESGGGLVQPGGSLRLSCAASGFTFSYYFIHWVRQAPGKGLEWVAVIYPDGGYTLYADSVKGRFTISADTSKNTAYLQMNSLRAEDTAVYYCARIYYPSGAMDYWGQGTLVTVSS
VL: DIQMTQSPSSLSASVGDRVTITCRASQSVSSAVAWYQQKPGKAPKLLIYSASSLYSGVPSRFSGSRSGTDFTLTISSLQPEDFATYYCQQTYWYPGTFGQGTKVEIK
Regarding B6, the binding result in assay [5], in assay [4] and in assay [6] was “binds” in each case.

B7: I2A-12 IgG1 (antibody, V domains shown)
VH: EVQLVESGGGLVQPGGSLRLSCAASGFTFTTYYIHWVRQAPGKGLEWVAYISPEDGYTSYADSVKGRFTISADTSKNTAYLQMNSLRAEDTAVYYCARAYYSAVMDYWGQGTLVTVSS
VL: DIQMTQSPSSLSASVGDRVTITCRASQSVSSAVAWYQQKPGKAPKLLIYSASSLYSGVPSRFSGSRSGTDFTLTISSLQPEDFATYYCQQSWSPATTFGQGTKVEIK
B7: the binding result in assay [3] and in assay [4] was “binds” each time.

B8: I2A-30 IgG1 (antibody, V domains shown)
VH: EVQLVESGGGLVQPGGSLRLSCAASGFTFDSYFIHWVRQAPGKGLEWVAYIYSWGSYTHYADSVKGRFTISADTSKNTAYLQMNSLRAEDTAVYYCARGHRRYFALDYWGQGTLVTVSS
VL: DIQMTQSPSSLSASVGDRVTITCRASQSVSSAVAWYQQKPGKAPKLLIYSASSLYSGVPSRFSGSRSGTDFTLTISSLQPEDFATYYCQQVYFTPGTFGQGTKVEIK
As for B8, the binding result in assay [5] and in assay [4] was “binds” each time.

B9: I2A-8 IgG1 (antibody, V domains shown)
VH: EVQLVESGGGLVQPGGSLRLSCAASGFTFYGYYIHWVRQAPGKGLEWVAGIRPGGTYTYYADSVKGRFTISADTSKNTAYLQMNSLRAEDTAVYYCARYRYPAFDYWGQGTLVTVSS
VL: DIQMTQSPSSLSASVGDRVTITCRASQSVSSAVAWYQQKPGKAPKLLIYSASSLYSGVPSRFSGSRSGTDFTLTISSLQPEDFATYYCQQRRQHLWTFGQGTKVEIK
As for B9, the binding entry in assay [4] is listed as “binds”.
